PMC5348313
No constants are given. Whether binding was seen depends on the method and setting. Binding seen in cells or lysates may run through a third protein. Some binding calls cover weakened binding; strength is not graded here.

The chains behind the UniProt entries cited, without tags or fusion partners.
UniProt P49736: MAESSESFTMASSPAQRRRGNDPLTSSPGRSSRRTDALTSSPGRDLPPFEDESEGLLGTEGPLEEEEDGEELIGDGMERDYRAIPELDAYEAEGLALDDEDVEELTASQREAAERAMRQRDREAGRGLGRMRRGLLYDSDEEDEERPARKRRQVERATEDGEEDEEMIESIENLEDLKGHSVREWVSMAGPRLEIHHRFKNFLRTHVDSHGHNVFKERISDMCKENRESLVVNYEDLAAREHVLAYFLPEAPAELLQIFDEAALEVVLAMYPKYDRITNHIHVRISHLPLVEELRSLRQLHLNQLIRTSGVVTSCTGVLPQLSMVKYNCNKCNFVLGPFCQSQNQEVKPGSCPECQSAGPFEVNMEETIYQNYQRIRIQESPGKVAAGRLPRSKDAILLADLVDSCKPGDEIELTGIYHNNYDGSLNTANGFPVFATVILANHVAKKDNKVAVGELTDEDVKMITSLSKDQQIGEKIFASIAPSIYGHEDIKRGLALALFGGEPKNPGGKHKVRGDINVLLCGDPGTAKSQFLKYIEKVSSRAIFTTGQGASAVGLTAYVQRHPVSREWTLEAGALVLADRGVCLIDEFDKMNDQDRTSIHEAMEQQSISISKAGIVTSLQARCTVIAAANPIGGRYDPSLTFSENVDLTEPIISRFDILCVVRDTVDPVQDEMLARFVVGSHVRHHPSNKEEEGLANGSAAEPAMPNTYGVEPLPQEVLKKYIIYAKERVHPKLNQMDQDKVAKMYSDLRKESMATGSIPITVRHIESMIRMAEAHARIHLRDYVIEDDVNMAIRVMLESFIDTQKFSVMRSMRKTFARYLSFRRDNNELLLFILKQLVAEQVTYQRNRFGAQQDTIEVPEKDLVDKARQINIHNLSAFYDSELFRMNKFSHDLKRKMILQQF
UniProt P08151: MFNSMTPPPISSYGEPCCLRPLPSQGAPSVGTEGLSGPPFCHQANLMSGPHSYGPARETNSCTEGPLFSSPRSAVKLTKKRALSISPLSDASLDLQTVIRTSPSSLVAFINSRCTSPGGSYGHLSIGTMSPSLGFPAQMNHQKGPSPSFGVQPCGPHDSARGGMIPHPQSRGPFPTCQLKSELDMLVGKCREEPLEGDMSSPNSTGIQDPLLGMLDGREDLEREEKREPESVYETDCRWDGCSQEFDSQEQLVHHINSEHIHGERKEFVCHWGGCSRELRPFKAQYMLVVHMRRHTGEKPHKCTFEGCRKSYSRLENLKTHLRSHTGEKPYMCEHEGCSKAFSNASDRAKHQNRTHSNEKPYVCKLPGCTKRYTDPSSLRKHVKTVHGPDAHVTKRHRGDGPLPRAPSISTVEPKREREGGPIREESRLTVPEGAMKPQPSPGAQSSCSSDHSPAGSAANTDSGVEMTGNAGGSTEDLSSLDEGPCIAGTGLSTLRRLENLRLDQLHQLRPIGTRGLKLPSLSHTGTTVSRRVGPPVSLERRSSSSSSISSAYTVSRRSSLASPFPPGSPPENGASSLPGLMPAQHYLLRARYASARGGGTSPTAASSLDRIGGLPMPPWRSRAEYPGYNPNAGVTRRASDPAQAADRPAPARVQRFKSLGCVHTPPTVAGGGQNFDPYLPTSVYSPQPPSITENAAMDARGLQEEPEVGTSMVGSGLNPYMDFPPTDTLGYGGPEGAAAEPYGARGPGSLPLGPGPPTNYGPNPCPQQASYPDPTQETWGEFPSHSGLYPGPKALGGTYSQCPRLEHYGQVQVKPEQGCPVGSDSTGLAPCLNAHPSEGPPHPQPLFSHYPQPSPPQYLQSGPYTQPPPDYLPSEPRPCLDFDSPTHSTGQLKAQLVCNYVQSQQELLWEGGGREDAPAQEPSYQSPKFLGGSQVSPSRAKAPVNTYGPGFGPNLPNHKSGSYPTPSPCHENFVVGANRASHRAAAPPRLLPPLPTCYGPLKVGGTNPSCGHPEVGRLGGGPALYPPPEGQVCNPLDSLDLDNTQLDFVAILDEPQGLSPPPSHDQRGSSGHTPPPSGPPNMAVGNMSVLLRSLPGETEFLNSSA

T1: ORC4 (human (endogenous in HT29)) (UniProt O43929)
T1 sequence: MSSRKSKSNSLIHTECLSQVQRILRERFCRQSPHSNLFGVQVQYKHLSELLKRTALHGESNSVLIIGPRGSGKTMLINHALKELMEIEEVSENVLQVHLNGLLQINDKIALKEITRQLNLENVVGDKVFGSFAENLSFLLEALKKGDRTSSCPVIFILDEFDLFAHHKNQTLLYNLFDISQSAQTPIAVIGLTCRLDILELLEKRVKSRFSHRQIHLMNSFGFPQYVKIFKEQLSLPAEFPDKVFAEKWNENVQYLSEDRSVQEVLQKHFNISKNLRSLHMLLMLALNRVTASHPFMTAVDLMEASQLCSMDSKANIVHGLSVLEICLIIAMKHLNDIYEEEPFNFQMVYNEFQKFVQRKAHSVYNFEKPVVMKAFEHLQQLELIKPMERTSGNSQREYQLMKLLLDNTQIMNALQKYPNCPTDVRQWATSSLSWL


Legend:
Experiment in all cases: co-IP; endogenous proteins in HT29 cell lysate (Pierce lysis buffer with 1% NP-40); antibody or IgG control overnight at 4°C, Dynabeads Protein G 2 hr at 4°C, washed with TBST, Western blot; cells treated with DMSO (0.2%) or GANT61 (20 μM) for 4 hr
[1] = target: MCM2 (human (endogenous in HT29)) (UniProt P49736)
[2] = target: T1, ORC4 (human (endogenous in HT29))
[3] = target: GLI1 (human (endogenous in HT29)) (UniProt P08151)

binding [1] | binding [2] | binding [3] | Molecule
binds | binds | – | GLI1 (from UniProt P08151 1-1106)
– | – | binds | CDT1 (protein, UniProt Q9H211 1-546) MEQRRVTDFFARRRPGPPRIAPPKLACRTPSPARPALRAPASATSGSRKRARPPAAPGRDQARPPARRRLRLSVDEVSSPSTPEAPDIPACPSPGQKIKKSTPAAGQPPHLTSAQDQDTISELASCLQRARELGARVRALKASAQDAGESCTPEAEGRPEEPCGEKAPAYQRFHALAQPGLPGLVLPYKYQVLAEMFRSMDTIVGMLHNRSETPTFAKVQRGVQDMMRRRFEECNVGQIKTVYPASYRFRQERSVPTFKDGTRRSDYQLTIEPLLEQEADGAAPQLTASRLLQRRQIFSQKLVEHVKEHHKAFLASLSPAMVVPEDQLTRWHPRFNVDEVPDIEPAALPQPPATEKLTTAQEVLARARNLISPRMEKALSQLALRSAAPSSPGSPRPALPATPPATPPAASPSALKGVSQDLLERIRAKEAQKQLAQMTRCPEQEQRLQRLERLPELARVLRSVFVSERKPALSMEVACARMVGSCCTIMSPGEMEKHLLLLSELLPDWLSLHRIRTDTYVKLDKAADLAHITARLAHQTRAEEGL
